The whole screen tested about 330,000 compounds, of which about 7,700 (2.3%) were called active. Inconclusive means that the source gave no clear call. Such entries were picked first, then a sample of the others. The call rests on the fitted dose curve; in most records, active means well fitted inhibition curve with a large enough effect; inconclusive means small, poorly fitted or top-dose-only effect, or effect the other way; inactive means flat fitted curve, though single readings scatter. A potency beside an inconclusive call is a rough fit, not a confirmed value.
assay: qHTS screen for small molecules that inhibit ELG1-dependent DNA repair in human embryonic kidney (HEK293T) cells expressing luciferase-tagged ELG1; conditions: HEK293T ELG1-luciferase reporter, luminescence, 16 h, DNA damage induced by 5-fluorouridine; activity change, negative = inhibition: at 46.1 µM (top of the series); further: nearly all actives have a fitted effect of over 55% in size
In short: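 Reporter activity after DNA damage by 5-fluorouridine is monitored. Compound-treated cells incubate 16 hr at 37 °C, then ONE-Glo is added for 30 min before luminescence reading.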
On the % scale 0 is the no-effect control and ±100 the full control effect; potency means the concentration at half of the fitted maximal effect.

| Compound | Potency | activity change, negative = inhibition |
| --- | --- | --- |
| O=C(CSc1nc2nn(-c3ccccc3)c(=O)c-2c2n1CCCCC2)Nc1ccc(OC(F)F)cc1 | active: 13 µM |  |
| O=C(NCCCN1CCCC1)Nc1ccccc1[N+](=O)[O-] |  | inactive: -0.954% |
| Cc1noc(C)c1S(=O)(=O)N(C)C[C@H]1Oc2c(NC(=O)Nc3ccc4c(c3)OCO4)cccc2C(=O)N([C@H](C)CO)C[C@@H]1C | inconclusive: 32.6 µM [inhibitor, partial curve, poor fit] |  |
| CN1CCN(c2ccc(Cl)cc2NC(=O)/C=C/c2ccc(F)cc2)CC1 |  | inactive: -6.09% |
| Cc1cccc(C(=O)N=c2sccn2C)c1[N+](=O)[O-] | inconclusive: 13 µM [activator, partial curve] |  |
| CC(=O)c1ccc2noc(-c3cccc(C)c3)c2c1 |  | inactive: 0% |
| CSc1ccccc1C(=O)Nc1ncc(C)s1 | inconclusive: 20.6 µM [activator, single point] |  |
| CC1(C)CC(NC(=O)c2ccc(Cl)c(Cl)c2)CC(C)(C)N1 |  | inactive: 13.4% |
| Cc1ccc(C)c(Cn2nnc3c(=O)[nH]c(C4CCN(S(=O)(=O)c5ccc(S(=O)(=O)NC6CC6)cc5)CC4)nc32)c1 | active: 16.4 µM |  |
| Cc1ccc(-c2nc3ccccc3[nH]2)s1 | inconclusive: 2.06 µM [activator, full curve] |  |
| Cc1c(Cl)cccc1NC(=O)CNc1cccc(S(=O)(=O)N(C)C)c1 | inconclusive: 23.1 µM [inhibitor, partial curve] |  |
| O=C1NC(=O)/C(=C\c2ccc(Sc3ccc(Cl)cc3)o2)N1 |  | inactive: 18.4% |
| COc1ccc(-c2csc3nc(C)nc(N4CCN(c5ccc(C(C)=O)cc5)CC4)c23)cc1OC | active: 13 µM |  |
| CCN(CC)CCCNC(=S)Nc1ccc(Br)cc1 | inconclusive: 18.3 µM [activator, partial curve] |  |
| O=C(c1ccncc1)N1N=C(C2CCCCC2)CC1(O)C(F)(F)F (configuration not stated) |  | inactive: -25.2% |
| O=C(O)C1Cc2ccccc2CN1C(=O)c1ccco1 (configuration not stated) |  | inconclusive: 7.96% [activator] |
| CCC(=O)Nc1c2c(nn1-c1cccc(Cl)c1)CS(=O)(=O)C2 |  | inactive: 0.196% |
| Cc1ccccc1N(C(=O)c1snc(C(N)=O)c1N)C(C(=O)NC1CCCCC1)c1ccc(O)cc1 (configuration not stated) | inconclusive: 20.6 µM [inhibitor, single point] |  |
| O=C(NCc1csc(-c2ccccc2)n1)c1ccco1 | inconclusive: 14.6 µM [activator, partial curve] |  |
| Cc1ccc2cc(C)c(N3CCN(c4ccccn4)CC3)nc2c1 | inconclusive: 25.9 µM [inhibitor, single point] |  |
| COc1cccc2c(=O)cc(C)n(CC(=O)Nc3ccc(C)c(C)c3)c12 | inconclusive: 10.3 µM [inhibitor, partial curve] |  |
| Cc1ccc(-c2cc(C(=O)N3CCOCC3)c3ccccc3n2)cc1 |  | inactive: 11.9% |
| CCCCN(c1ccccc1)S(=O)(=O)c1cccc2cccnc12 | inconclusive: 29.1 µM [inhibitor, single point] |  |
| CC1(C)CC(=O)C(C=NCCCN2CCOCC2)=C(O)C1 | inconclusive: 12.6 µM [inhibitor, single point] |  |

| Compound | Potency | activity change, negative = inhibition |
| --- | --- | --- |
| Cc1ccccc1Cn1nc(C)c(NC(=O)c2sc3ccccc3c2Cl)c1C | active: 25.9 µM |  |
| CCOc1ccc(C(=O)C(C)OC(=O)Cn2c(C)csc2=O)cc1 (configuration not stated) |  | inactive: 22.9% |
| Cc1ccc(S(=O)(=O)Nc2ccc(N(C)S(=O)(=O)c3ccc(C)cc3)cc2)cc1 | inconclusive: 18.3 µM [inhibitor, single point] |  |
| CC1(C(=O)Nc2cccc(C(F)(F)F)c2)CO1 (configuration not stated) | inconclusive: 20.6 µM [inhibitor, single point] |  |
| Cc1ccc(O)c(N=Cc2sc3ccccc3c2Cl)c1 | inconclusive: 16.4 µM [activator, single point] |  |
| O=C(NCCCN1CCOCC1)C1CCN(S(=O)(=O)c2cccc(C(F)(F)F)c2)CC1 |  | inactive: 0% |
| COc1ccccc1C1C2=C(N=C3SCC(=O)N31)c1ccccc1CC2 (configuration not stated) |  | inactive: -18.4% |
| CN(Cc1ccno1)Cc1cn(Cc2ccccc2)nc1-c1ccc2c(c1)OCO2 | inconclusive: 23.1 µM [inhibitor, single point] |  |
| CCSc1nn2c(=O)c3ccccc3nc2s1 | inconclusive: 8.2 µM [activator, partial curve] |  |
| COc1ccc(N(CC(=O)NC(C)(C)C)C(=O)CCC(=O)Nc2nccs2)cc1 |  | inactive: -1.43% |
| O=C(NCc1ccccc1)NC(=O)c1ccncc1 |  | inactive: -1.16% |
| O=C(Nc1ccc(-c2nc3ccccc3o2)cc1)c1cccnc1 | inconclusive: 2.82 µM [activator, full curve] |  |
| C=C(C)CN1C(=O)C2(OCCO2)c2ccccc21 |  | inactive: 11.9% |
| C=CCn1c(SCC(=O)Nc2sccc2C(N)=O)nc2ccc(Cl)cc2c1=O | inconclusive: 16.4 µM [inhibitor, single point] |  |
| CCC(C(=O)NC(C)CCc1ccccc1)n1nc(C)n2c(cc3occc32)c1=O (configuration not stated) | inconclusive: 9.2 µM [inhibitor, partial curve, poor fit] |  |
| COc1ccc(OC)c(CN2CCN(C(=O)c3cc(S(=O)(=O)Nc4ccccc4OC)ccc3C)CC2)c1 | active: 23.1 µM |  |
| COC(=O)c1ccc2c(c1)C(C)(C)C(/C=C/c1ccc(OC)c(OC)c1OC)=[N+]2C | inconclusive: 35.5 µM [inhibitor, single point] |  |
| O=C(c1cc2sccc2n1Cc1ccccc1)N1CCCc2ccccc21 | inconclusive: 29.1 µM [activator, single point] |  |
| CCCCCN(C(=O)CCC(=O)OCCOc1ccccc1Cl)c1c(N)n(CCCC)c(=O)[nH]c1=O |  | inactive: 3.52% |
| Cc1cccc(-c2nn(-c3ccccc3)cc2C(=O)Nc2cccc(S(=O)(=O)NC3=NCCC3)c2)c1 | inconclusive: 16.4 µM [inhibitor, single point] |  |
| O=C(NCC(=O)N1CC=C(c2ccccc2)CC1)c1ccc(OC(F)F)cc1 | inconclusive: 20.6 µM [inhibitor, single point] |  |
| CN(C)N1C(N)=C(C#N)C(c2ccsc2)C2=C1CC(C)(C)CC2=O (configuration not stated) |  | inactive: -0.472% |
| O=[N+]([O-])c1cc(/C=N/n2cnnc2)ccc1N1CCCC1 |  | inactive: -12% |
| CCc1c(C)nc(SC/C=C/c2ccccc2)[nH]c1=O | inconclusive: 29.1 µM [activator, single point] |  |

Exported bar-delimited: part of the list above.
Compound | Potency | activity change, negative = inhibition
CCC(C(=O)NC(C)CCc1ccccc1)n1nc(C)n2c(cc3occc32)c1=O (configuration not stated) | inconclusive: 9.2 µM [inhibitor, partial curve, poor fit] | 
COc1ccc(OC)c(CN2CCN(C(=O)c3cc(S(=O)(=O)Nc4ccccc4OC)ccc3C)CC2)c1 | active: 23.1 µM | 
COC(=O)c1ccc2c(c1)C(C)(C)C(/C=C/c1ccc(OC)c(OC)c1OC)=[N+]2C | inconclusive: 35.5 µM [inhibitor, single point] | 

Next structures:

| Compound | Potency | activity change, negative = inhibition |
| --- | --- | --- |
| COc1ccccc1OCc1ccc(C(=O)Nc2ccccc2)cc1 | inconclusive: 5.17 µM [activator, full curve] |  |
| CCN(CC)CCN(C(=O)c1ccc2c(c1)OCCO2)c1nc2ccc(C)cc2s1 | inconclusive: 13 µM [activator, partial curve, poor fit] |  |
| Cc1cc(C)nc(N/C(=N/S(=O)(=O)Cc2ccccc2)Nc2ccccc2)n1 | inconclusive: 20.6 µM [inhibitor, single point] |  |
| CCn1c2ccccc2c2cc(NC(=O)c3ccccc3[N+](=O)[O-])ccc21 | inconclusive: 8.2 µM [inhibitor, partial curve, poor fit] |  |
| COc1ccccc1-c1cn[nH]c(=S)n1 |  | inactive: -4.17% |
| CCc1cc2c(SCC(=O)Nc3ccc(NC(C)=O)cc3)ncnc2s1 | inconclusive: 3.55 µM [inhibitor, single point] |  |
| CC(=O)OCCSc1c(-c2ccccc2)c2cc(Cl)ccc2[nH]c1=O |  | inactive: -12.5% |
| CC(C)NC(=O)CC(=O)N/N=C/c1cccs1 | inconclusive: 7.3 µM [inhibitor, partial curve, poor fit] |  |
| CC(C)(C)OC(=O)C[C@H]1C/C=C\C[C@H](CC(=O)N[C@H](CO)Cc2ccccc2)C(=O)N[C@H](Cc2ccccc2)COC1=O | inconclusive: 25.9 µM [inhibitor, partial curve, poor fit] |  |
| Cc1ccccc1Nc1nc(N)nc(COC(=O)c2cccc(S(=O)(=O)N(C)C)c2)n1 | inconclusive: 23.1 µM [inhibitor, single point] |  |
| CCS(=O)(=O)N1CCN(C(=O)COc2ccc(-c3ccccc3)cc2)CC1 | inconclusive: 23.1 µM [inhibitor, single point] |  |
| Cc1ccc2sc(N(CCCN(C)C)C(=O)c3ccc(S(=O)(=O)N(C)C4CCCCC4)cc3)nc2c1C |  | inactive: -13.9% |
| O=C(c1ccc(-n2cccn2)cc1)N1CCc2c([nH]c3ccccc23)C1c1ccccn1 (configuration not stated) | inconclusive: 29.1 µM [inhibitor, single point] |  |
| CSc1ccc(CN(C)C(=O)CNC(=O)c2ccc3c(c2)OCO3)cc1 |  | inactive: -9.71% |
| CC(=O)Nc1ccc(S(=O)(=O)N2CCSC2c2ccc(Cl)cc2)cc1 (configuration not stated) | inconclusive: 11.6 µM [inhibitor, partial curve] |  |
| COC(=O)c1sccc1NC(=O)Nc1ccc(C)c(C)c1 | inconclusive: 4.61 µM [activator, partial curve] |  |
| COc1ccc(Nc2ccncc2[N+](=O)[O-])cc1 | active: 5.8 µM |  |
| COc1ccccc1CNC(=O)CN(C)S(=O)(=O)c1ccc2c(c1)n(C)c(=O)c(=O)n2C |  | inactive: 26.1% |
| c1ccc(-c2nnc3sc(-c4csc5c4CCCC5)nn23)cc1 | inconclusive: 29.1 µM [inhibitor, single point] |  |
| COc1cccc(CNC(=O)C2CCCN(S(=O)(=O)c3cccc4nonc34)C2)c1 (configuration not stated) |  | inactive: -15.2% |
| COCCOC(=O)C1=C(C)NC(=O)NC1/C=C/c1ccccc1 (configuration not stated) |  | inactive: -5.91% |
| COc1ccc2oc(C(=O)NC3CCCCC3)c(C)c2c1 | inconclusive: 11.6 µM [activator, partial curve] |  |
| COc1ccc(Cc2noc(-c3ccc(OC)c(OC)c3)n2)cc1OC | active: 20.6 µM |  |
| Cc1ccnc(SCc2cc(=O)c(OC(=O)c3cc([N+](=O)[O-])ccc3Cl)co2)n1 | inconclusive: 23.1 µM [activator, single point] |  |

— PubChem BioAssay AID504467 (National Center for Advancing Translational Sciences (NCATS), 2011)
